Most values lie at the floor of the assay. Slopes are relative: functional sequences can read slightly below zero. Where only a bound is given, the exact number is not on record here.

This series deals with Saccharomyces cerevisiae PS128 hsf1 delta, HSF1(1-493) fusion. The series is described as follows: growth estimate (transactivation domain function in HSF1 fusion, heat-shock survival) (a.u. (slope of normalised read count over time)); higher = stronger growth at 37°C, i.e. more transactivation activity. Particulars: library: random library.
In the case of SWYPG, the growth estimate is < -0.25.
In the case of LVV, the growth estimate was < -0.25.
The result for LPDRMVRGV reads < -0.25; that for LVGLARLLWGVVRSIPHHLT, < -0.25.
Consider SFGGATTQ, for which the growth estimate is < -0.25.
As for MRGILSVWLLTGVCVRFNYL, the figure is < -0.25.
The result for YLQHPCLWDSQWSGLSRPFC reads < -0.25; that for RAVWRI, < -0.25; that for QNGRKKSVGQVS, < -0.25.
Take STPGLCLCIRD: the growth estimate was -0.246.
In the case of SNSTLRGCRVNNACGIILAI, the growth estimate was < -0.25.
On to ISKDVGCGGAD, for which the growth estimate was < -0.25.
In the case of VYGWDGR, the growth estimate is < -0.25.
The result for PDPECNGETEMDGQCGDSGD reads < -0.25.
For RRGLCEGGVGGYDI, the growth estimate was < -0.25.
As to VQLSVMLGPGAVVS, the growth estimate is < -0.25.
For GHSKDIQAPCVTTRLGVSSL, the growth estimate is < -0.25.
As for SRDTHRACSRTTKDVAWIPP, the figure is < -0.25; as for RWHVMGLG, < -0.25; as for RNPHVP, < -0.25.
For the substance IALIIRSKWPTNLRPDVSGR, the growth estimate was < -0.25.
On to SQVEMLLGGEGLMFGPPAKP, for which the growth estimate is < -0.25.
As for PIWRHELCNLGGLLNLAMRS, the figure is < -0.25; as for VRGRVG, < -0.25.
As for AVEP, the figure is < -0.25; as for VMQ, < -0.25; as for SQRPPWNTVRMCRLSHAFNY, < -0.25.
Turning to PPLLNQ, the growth estimate is < -0.25.
For the substance LYIDDQRRGVLREM, the growth estimate was < -0.25.
Turning to AITKNFGGFITCRYWSLRRL, the growth estimate was < -0.25.
As for QIIGQALFGEEV, the figure is < -0.25; as for RNAGRHSTDLVLFHLALYRS, -0.245; as for LQCGNSEFFSSLM, < -0.25.
Consider RVVNPPLSLPAGRRGLKPRI, for which the growth estimate is < -0.25.
As to LSGRRTSDQGESDPATRAPA, the growth estimate was < -0.25.
As for FFYASQAFHAGLASALVLCG, the figure is < -0.25.
The result for FQTNEFIQRANISRDDRETP reads < -0.25; that for TTRVNRINSASVKFGDVSRS, < -0.25; that for QLSGWLGTSSLYFSWRQIRG, -0.246.
For the substance ASYDLVM, the growth estimate was < -0.25.
As for SVARGSERCW, the growth estimate was < -0.25.
PFDRDLMAVGSVTTGLTYHP: the growth estimate was < -0.25.
As to DCIRASVSWTCRKQRYTASL, the growth estimate is < -0.25.
For the substance DNGSRCKGKVPPLKKAARNN, the growth estimate was < -0.25.
For the substance PVSPLL, the growth estimate is < -0.25.
In the case of LIRLNACTL, the growth estimate is < -0.25.
Consider LVKPLKLGYPFDLRHYAQYC, for which the growth estimate was < -0.25.
LHLVIGGSEAVVALIGARNG: the growth estimate is < -0.25.
On to AEESAFRGVPYR, for which the growth estimate is < -0.25.
LCSFFTHFAHRPFTAGRK: the growth estimate is < -0.25.
For TFSDVQLAPQPPMCLV, the growth estimate is < -0.25.
Turning to PQAPGRN, the growth estimate is -0.206.
In the case of CCFAY, the growth estimate is < -0.25.
As for MNTPASPSTGILALGYIKVF, the growth estimate was -0.248.
Turning to PQVINRTPCVMSKFSCRLPS, the growth estimate was < -0.25.
EHVVVVLLRVILENETNGAT: the growth estimate was < -0.25.
Take SATTLSVSFLMRHGLDDSNR: the growth estimate was < -0.25.
For PFRELEL, the growth estimate was < -0.25.
As for KIVERLTMIQEWKLSSRPTS, the figure is < -0.25; as for PTILIGSGRVTGRMLRAIWW, < -0.25.
Take AGSVRQLRASGHTGRRALPP: the growth estimate is < -0.25.
In the case of KCAKWHARPRSRLGVAKTGT, the growth estimate was < -0.25.
Take PRPLPWPLSDGGGLR: the growth estimate is < -0.25.
Consider TTTNV, for which the growth estimate was < -0.25.
On to HELTVLQTSPHGPVCSCRPM, for which the growth estimate is < -0.25.
Regarding HIVSVRIPDVRR, the growth estimate was < -0.25.
LIVDPTQTACQSPL: the growth estimate was < -0.25.
Turning to RIIWNLATPLSALPRTHGAL, the growth estimate was < -0.25.
Take VSKD: the growth estimate is < -0.25.
For the substance SWAVRYRLH, the growth estimate is < -0.25.
As for TVLIRRIWMQLTIQMFVGPV, the figure is -0.189.
Consider GSP, for which the growth estimate was < -0.25.
In the case of GQNCSYQSILTKPETRPTIT, the growth estimate was < -0.25.
As for GIGTHSSY, the figure is < -0.25; as for TRRTGMCSVPGSCVRATPGR, < -0.25.
As for EILL, the figure is < -0.25; as for VRLPLRPSNMRVRRSETLVG, < -0.25; as for VGLRNSTQPSTGTKNVGCKY, < -0.25.
Regarding VKSLYPSESTEFFGAVVRVH, the growth estimate was < -0.25.
Take TFRGSARLQLIQPNPPPVVH: the growth estimate was < -0.25.
